Data taken from ChEMBL document CHEMBL3988442, “University of Dundee, Small-Polar-MMV Screening Library” (2021).

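Whole-cell growth test on Mycobacterium tuberculosis, read after 3 days in glucose-containing 7H9 medium; the read-out is not stated. Compounds at 50 µM. Direction is inferred from retests: higher values go with more growth inhibition. Size under these conditions: about 69,000 compounds, about 760 of them at 50% or above in at least one test.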

Values are the deposited “Percent Effect”, in %.
The record does not define 0% and 100%; most values in the screen are far below 50% and negative numbers occur (in some assays of this library far below -100).
The compounds are a random part of those screened.
Two or more numbers in one place are separate tests of the same structure; such repeats can differ widely.

Result for O=C(c1nc(N2CCCC2)ncc1Cl)N1CCN(Cc2ccsc2)CC1 was -5.472% and 1.988%. With Cc1noc(C)c1CN1CC2(CCCCN2C)CC1=O.O=C(O)C(F)(F)F (centres unmarked) the screen gave -8.545% and -31.63%. For Cc1ccc(N2CCN(C(=O)COc3nccc(C)n3)CC2)nn1 the result was -17.27% and -2.846%. CC1CN(CCOc2cccc(C#N)c2)CCN1Cc1nccn1C (centres unmarked) gave -0.7634% and -30.08%. COCC(=O)N1CCN(C(=O)CCc2ccsc2)CC1 read -12.48%. For CCOCc1ncn2c1CN(S(=O)(=O)c1cccs1)CC2 the result was 12.57% and -0.8872%. O=C1CCC2(CCN(Cc3cc(F)cc(F)c3)CC2)CN1CCO gave 2.801% and -2.153%.

Result for COc1ccc2c(c1)CCCN(C(=O)NCC1CCCO1)C2 (centres unmarked) was 9.708%. With C=Cn1ncc(CN2CCC(c3ncc(Cl)cc3S(C)(=O)=O)CC2)c1C the screen gave -8.942%. CS(=O)(=O)c1ccc(CC(=O)N2CCN3CCNC(=O)C3C2)cc1 (centres unmarked) read -5.187% and 1.92%. CS(=O)(=O)N1CCCC12CCCN(S(=O)(=O)c1cccc(F)c1)C2 (centres unmarked) read 14.57%. Cc1c[nH]nc1C1CCCCN1C(=O)Cn1cc(Cl)cn1 (centres unmarked) gave -7.895%. For CC(NC(=O)Nc1cccnc1N1CCCC1)c1ccn(C)c1 (centres unmarked) the result was 8.731%. CC(=O)N(C)Cc1ncn2c1CN(C(=O)CC1CC1)CCC2 gave 5.743%.

[H][C@@]12C[C@@H](c3nc(C)no3)CN(S(C)(=O)=O)[C@]1([H])CCO2 gave -7.278%. With O=C(O)C(F)(F)F.[H][C@@]12CCN(CCOC)C(=O)[C@@]1([H])CN(Cc1ccc(C)s1)C2 the screen gave 19.61%. With CN(C)Cc1ccc(C2CCCCN2C(=O)c2cccc(CO)n2)cc1 (centres unmarked) the screen gave -31.94%. CCCc1nc(C(C)(C)NC(=O)C2CC(=O)N(CC(C)C)C2)no1 (centres unmarked) read -32.32% and -1.559%. Result for COc1ccc(F)cc1CSCC(=O)N(C)C1CC1 was 2.71%. O=C(c1ccco1)N1CCC(n2nc(-c3ccco3)ccc2=O)CC1 read 23.67%. Result for [H][C@@]12CNC(=O)[C@H](C)[C@]1([H])CN(Cc1ccccc1)C2 was 20.82%.

With CCn1cc(CN2CCCN(C3Cc4ccccc4C3)CC2)c(C)n1 the screen gave -2.884%. Result for CCc1nn(C)c2[nH]nc(NC(=O)c3cccnc3OCC(C)C)c12 was -21.14%. CN(Cc1ccc2c(c1)OCO2)Cc1cscn1 read -26.16% and -5.656%. With Cn1c(N2CC[C@H](O)C2)nc2cc(C(N)=O)ccc21 the screen gave -21.47%. With C[C@@H]1CN(S(=O)(=O)N2CCCC2)C[C@@]1(O)C1CC1 the screen gave 9.711% and 0.285%. OCC1CCN(c2ccc(NCc3ccsc3)nc2)CC1 read 10.84%. Cc1cc(-c2cnc(N3CCOCC3)nc2-c2ccc(C)s2)on1 gave 23.31%.

For [H][C@@]12CNCC[C@]1(O)CCN(c1nnc(C)c3ccccc13)C2 the result was -42.21% and 0.9588%. CCc1nc(C2CCCN2CCc2cccs2)no1 (centres unmarked) gave -38.06%. Cc1ccc2c(c1)c(C)cc(=O)n2CCC(=O)O read -4.556% and -15.17%. CC(=O)N1Cc2ccccc2C[C@H]1C(=O)N(C)Cc1ccccn1 gave 5.461% and 0.1571%. Result for O=C(O)C(F)(F)F.[H][C@@]12CCN(CC3CC3)[C@@]1([H])CCN2C(=O)c1cccc(Cl)c1 was 3.889%. Fc1ccccc1CN1CCCC(NC2CCOCC2)C1 (centres unmarked) read -14.77% and -3.005%. Cc1noc(C)c1CN1CCCC1c1nnc2ccccn12 (centres unmarked) read 8.966%.

For CCc1nc(C2CCCN2C(=O)c2ccc(=O)n(CC)n2)no1 (centres unmarked) the result was 6.039% and -59.09%. Result for Cc1cc(C(=O)NCCN2CCN(S(C)(=O)=O)CC2)no1.Cl was 37.43%. [H][C@]12CN(C(=O)c3cnc(C)nc3)CC[C@@]1(O)CCN(C(=O)N(C)C)C2 read -24.41%. Result for CS(=O)(=O)NC1CCc2[nH]c(=O)ccc2C1 (centres unmarked) was -14.47%. For O=C(NCCCn1cccn1)N1CCCC1c1cccs1 (centres unmarked) the result was 17.29%. Result for CCc1nnc(CN(C)CC2CCCCC2)o1 was 61.38%. Result for NC(=O)C1CCN(C(=O)CCCc2nnc(-c3ccccc3)o2)CC1 was 15.82%.

O=C(NC1CCc2nccn2C1)c1ccc(NC2CC2)nc1 (centres unmarked) read -4.527% and -45.6%. With Cl.O=C(O)CC1CN(Cc2ccccc2)CCO1 (centres unmarked) the screen gave -24.91%. For COCCNS(=O)(=O)c1cccc2c1CN(C(=O)c1ccoc1)CC2 the result was 97.94% and -7.849%. Cc1nccn1CC1CCCN1CCCc1nc(-c2cccs2)no1 (centres unmarked) gave 14.24%. With O=C(NCCN1CCOCC1)c1nc(-c2ccc3[nH]ccc3c2)no1 the screen gave 14.21%. CC(CNCc1ccc(Br)cc1)Oc1ccccn1.Cl (centres unmarked) read 22.46%. O=C(c1cnc(COc2ccccc2)nc1O)N1CCC(F)(F)CC1 gave -23.86%.

CC(C)CN1Cc2c(C(=O)NC3CC3)ncn2-c2ccccc2S1(=O)=O gave 3.015%. O=C(O)C(F)(F)F.[H][C@]12C[C@@H](C(=O)Nc3cnccn3)CO[C@@]1([H])CCN(c1ncc(F)cn1)C2 gave 5.983%. With Cc1n[nH]c2c1C(c1ccsc1)SCC(=O)N2 (centres unmarked) the screen gave -9.629%. With COCCCNC(=O)NCc1ccc(N2CCOC(C)C2)nc1 (centres unmarked) the screen gave -6.067% and -24.42%. Cc1nc(CNC2CC(=O)N(CCc3cccc(Cl)c3)C2)c[nH]1 (centres unmarked) gave 5.921%. CC(=O)NCCC(=O)NCc1ccc(Br)cc1Cl read 3.74%. With COc1ccc(CCC(=O)NCc2cc(C)on2)cc1 the screen gave -5.157% and -0.02461%.

c1cncc(COc2ccccc2CNC2CCc3ncnn3C2)c1 (centres unmarked) read -9.841%. Result for O=C(O)C(F)(F)F.[H][C@@]12CCCO[C@]1([H])[C@H](N(C)Cc1ccco1)CN(C(=O)c1cnccn1)C2 was -20.92%. Cc1ccc(SC2CCCC2)c(C(=O)NCCO)c1 gave 16.36%. CNC(=O)COc1ccc(-c2ccccc2)nc1 gave -2.23%.

For reference, 5 entries once more:

| Compound | Percent Effect |
|---|---|
| `[H][C@@]12C[C@@H](c3nc(C)no3)CN(S(C)(=O)=O)[C@]1([H])CCO2` | -7.278% |
| `NC(=O)C1CCN(C(=O)CCCc2nnc(-c3ccccc3)o2)CC1` | 15.82% |
| `O=C(NC1CCc2nccn2C1)c1ccc(NC2CC2)nc1` (centres unmarked) | -4.527% and -45.6% |
| `O=C(O)C(F)(F)F.[H][C@@]12CCCO[C@]1([H])[C@H](N(C)Cc1ccco1)CN(C(=O)c1cnccn1)C2` | -20.92% |
| `O=C(c1cnc(COc2ccccc2)nc1O)N1CCC(F)(F)CC1` | -23.86% |